Laboratory results: article PMC3068692

Chains of the proteins cited; added tags and fusions are not shown. Lines headed by an entry give the natural chain unless they say otherwise; changes in a name come on top.
UniProt P0AEC3: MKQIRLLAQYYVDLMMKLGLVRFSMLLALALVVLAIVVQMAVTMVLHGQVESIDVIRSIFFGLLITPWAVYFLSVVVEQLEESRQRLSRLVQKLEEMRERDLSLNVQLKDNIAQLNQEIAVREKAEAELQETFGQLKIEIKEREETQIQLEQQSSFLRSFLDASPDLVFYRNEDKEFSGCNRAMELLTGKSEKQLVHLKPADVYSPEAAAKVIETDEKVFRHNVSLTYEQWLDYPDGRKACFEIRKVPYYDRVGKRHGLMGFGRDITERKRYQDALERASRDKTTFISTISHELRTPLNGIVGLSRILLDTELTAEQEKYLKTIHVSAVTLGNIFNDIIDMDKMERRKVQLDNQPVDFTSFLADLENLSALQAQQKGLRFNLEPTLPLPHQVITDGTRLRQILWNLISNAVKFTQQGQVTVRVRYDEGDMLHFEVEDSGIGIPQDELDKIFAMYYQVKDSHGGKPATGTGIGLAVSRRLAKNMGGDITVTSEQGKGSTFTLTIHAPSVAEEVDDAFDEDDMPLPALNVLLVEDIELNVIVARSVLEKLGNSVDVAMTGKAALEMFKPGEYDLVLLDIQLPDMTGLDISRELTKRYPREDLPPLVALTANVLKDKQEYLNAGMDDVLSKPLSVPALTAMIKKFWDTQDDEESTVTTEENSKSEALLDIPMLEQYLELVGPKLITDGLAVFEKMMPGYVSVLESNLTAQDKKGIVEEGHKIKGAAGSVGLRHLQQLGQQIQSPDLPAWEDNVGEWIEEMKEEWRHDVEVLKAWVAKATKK

Legend:
Assay in all cases: two-hybrid; Cya-based bacterial two-hybrid (BACTH) in E. coli BTH101, LB at 30 °C, 0.5 mM IPTG for 1 h, β-galactosidase in liquid culture; threefold above vector alone scored positive; binder written as the T18 fusion, target as the T25 fusion
[1] = target: T1, PspB fused to a Cya fragment at its C-terminus (PspB–T25 or PspB–T18) (E. coli) (UniProt P0AFM9)
T1 sequence: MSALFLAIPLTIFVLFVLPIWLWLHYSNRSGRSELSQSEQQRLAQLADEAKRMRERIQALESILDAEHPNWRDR

[2] = target: T2, PspC fused to a Cya fragment (T25–PspC or T18–PspC) (E. coli) (UniProt P0AFN2)
T2 sequence: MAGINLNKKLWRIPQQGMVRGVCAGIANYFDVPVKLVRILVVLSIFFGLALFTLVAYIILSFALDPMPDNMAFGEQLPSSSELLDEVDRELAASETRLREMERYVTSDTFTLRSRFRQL

[3] = target: T3, PspG fused to a Cya fragment at its C-terminus (PspG–T25 or PspG–T18) (E. coli) (UniProt P32696)
T3 sequence: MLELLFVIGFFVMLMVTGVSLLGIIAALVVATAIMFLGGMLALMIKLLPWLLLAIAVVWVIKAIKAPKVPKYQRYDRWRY

[4] = target: T4, PspC_(1–68) fused to a Cya fragment at its N-terminus (E. coli) (UniProt P0AFN2)
T4 sequence: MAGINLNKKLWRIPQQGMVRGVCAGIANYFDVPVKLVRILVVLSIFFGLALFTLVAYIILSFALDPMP

[5] = target: T5, PspC_(40–119) fused to a Cya fragment at its N-terminus (E. coli) (UniProt P0AFN2)
T5 sequence: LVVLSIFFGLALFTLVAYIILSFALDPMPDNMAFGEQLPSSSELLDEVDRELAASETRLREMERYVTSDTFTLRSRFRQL

binding [1]	binding [2]	binding [3]	binding [4]	binding [5]	Substance
binds weakly	binds weakly	no binding			ArcB^LeuZm (leucine zipper mutant of ArcB), T18 fusion (from UniProt P0AEC3)
binds					PspC_(40–119) leucine zipper mutant fused to T18 at its C-terminus (from UniProt P0AFN2) (domain or fragment)
binds	binds		binds	binds	PspB^LeuZm (leucine zipper mutant of PspB) fused to T18 at its C-terminus (from UniProt P0AFM9)
binds		binds weakly			PspC^LeuZm (leucine zipper mutant of full-length PspC), T18 fusion (from UniProt P0AFN2)

No constants are given. Whether binding was seen depends on the method and setting. Binding calls can cover weak binding; strength is not graded here. Where a sequence is shown, tags or fusion partners need not be part of it.
